Test results: the supplement of paper PMC10849652
The other results are listed elsewhere or left out.

Amino acid sequences for entries named in this document (tags omitted). A change or cut given only in a name is not applied to a line headed by its entry.
UniProt Q6QNY1: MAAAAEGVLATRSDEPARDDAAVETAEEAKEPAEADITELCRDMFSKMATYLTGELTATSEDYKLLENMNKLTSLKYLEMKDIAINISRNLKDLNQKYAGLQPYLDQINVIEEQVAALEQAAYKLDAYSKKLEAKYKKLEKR
UniProt Q96G01: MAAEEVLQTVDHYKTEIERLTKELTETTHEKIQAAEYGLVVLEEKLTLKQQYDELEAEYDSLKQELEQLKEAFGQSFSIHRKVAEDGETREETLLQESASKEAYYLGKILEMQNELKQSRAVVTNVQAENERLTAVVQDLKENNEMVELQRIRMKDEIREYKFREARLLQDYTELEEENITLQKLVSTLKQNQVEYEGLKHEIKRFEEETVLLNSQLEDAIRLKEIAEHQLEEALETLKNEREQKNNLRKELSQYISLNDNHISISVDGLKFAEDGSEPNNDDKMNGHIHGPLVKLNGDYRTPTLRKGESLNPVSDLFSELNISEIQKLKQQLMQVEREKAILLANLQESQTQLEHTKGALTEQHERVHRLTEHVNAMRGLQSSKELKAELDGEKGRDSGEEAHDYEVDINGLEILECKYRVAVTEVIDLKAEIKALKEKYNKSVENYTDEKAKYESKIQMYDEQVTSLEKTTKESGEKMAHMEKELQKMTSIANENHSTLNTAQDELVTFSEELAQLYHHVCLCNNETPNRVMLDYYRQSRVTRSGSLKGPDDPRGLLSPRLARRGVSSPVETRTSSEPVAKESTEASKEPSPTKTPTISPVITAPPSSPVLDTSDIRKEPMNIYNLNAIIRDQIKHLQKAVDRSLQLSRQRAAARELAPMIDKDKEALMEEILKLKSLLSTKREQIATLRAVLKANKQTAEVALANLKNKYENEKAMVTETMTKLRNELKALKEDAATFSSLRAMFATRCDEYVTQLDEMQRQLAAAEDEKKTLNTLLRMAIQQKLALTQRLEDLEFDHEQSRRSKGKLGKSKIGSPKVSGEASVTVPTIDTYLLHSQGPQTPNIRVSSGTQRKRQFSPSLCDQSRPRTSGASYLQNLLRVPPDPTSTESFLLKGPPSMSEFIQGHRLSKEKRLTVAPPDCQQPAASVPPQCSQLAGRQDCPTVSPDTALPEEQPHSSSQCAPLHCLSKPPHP
UniProt P21953: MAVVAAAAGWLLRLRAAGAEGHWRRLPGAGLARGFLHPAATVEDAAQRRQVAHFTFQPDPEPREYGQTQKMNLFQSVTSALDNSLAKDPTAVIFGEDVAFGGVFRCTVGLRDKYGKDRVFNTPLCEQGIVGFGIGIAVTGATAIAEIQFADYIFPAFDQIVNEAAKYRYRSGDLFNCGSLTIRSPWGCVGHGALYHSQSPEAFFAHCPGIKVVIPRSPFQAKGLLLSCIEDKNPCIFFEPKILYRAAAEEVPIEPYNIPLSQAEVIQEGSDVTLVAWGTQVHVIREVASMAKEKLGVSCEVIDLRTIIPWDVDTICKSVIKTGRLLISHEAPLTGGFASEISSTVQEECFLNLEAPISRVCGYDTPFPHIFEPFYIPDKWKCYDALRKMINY
UniProt O15382: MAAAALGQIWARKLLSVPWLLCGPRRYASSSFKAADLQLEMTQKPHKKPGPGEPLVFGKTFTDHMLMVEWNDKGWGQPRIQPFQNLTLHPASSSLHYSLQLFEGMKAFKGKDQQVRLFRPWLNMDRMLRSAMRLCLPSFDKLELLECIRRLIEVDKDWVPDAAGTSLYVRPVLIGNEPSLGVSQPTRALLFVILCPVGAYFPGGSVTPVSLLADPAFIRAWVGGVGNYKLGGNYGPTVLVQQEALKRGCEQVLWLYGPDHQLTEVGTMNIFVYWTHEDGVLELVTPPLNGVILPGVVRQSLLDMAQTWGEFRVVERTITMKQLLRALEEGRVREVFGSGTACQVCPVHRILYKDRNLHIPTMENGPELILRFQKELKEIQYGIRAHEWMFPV
UniProt Q07817, whole entry, looked up: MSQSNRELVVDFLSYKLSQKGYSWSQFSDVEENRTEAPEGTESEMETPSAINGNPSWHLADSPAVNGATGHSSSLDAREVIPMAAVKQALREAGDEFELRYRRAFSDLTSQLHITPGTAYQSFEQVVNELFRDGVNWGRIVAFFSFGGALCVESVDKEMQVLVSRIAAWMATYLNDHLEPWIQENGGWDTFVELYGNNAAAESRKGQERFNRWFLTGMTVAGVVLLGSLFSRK
UniProt P53004: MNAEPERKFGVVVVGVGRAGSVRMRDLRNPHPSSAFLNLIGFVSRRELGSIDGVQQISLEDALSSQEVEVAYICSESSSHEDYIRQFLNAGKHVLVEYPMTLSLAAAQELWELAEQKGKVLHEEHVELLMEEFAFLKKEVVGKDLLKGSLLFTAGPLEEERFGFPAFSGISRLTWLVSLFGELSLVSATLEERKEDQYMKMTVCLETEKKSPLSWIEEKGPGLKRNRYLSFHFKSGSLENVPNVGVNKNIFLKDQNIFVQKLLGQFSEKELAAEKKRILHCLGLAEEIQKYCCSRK
UniProt P51572: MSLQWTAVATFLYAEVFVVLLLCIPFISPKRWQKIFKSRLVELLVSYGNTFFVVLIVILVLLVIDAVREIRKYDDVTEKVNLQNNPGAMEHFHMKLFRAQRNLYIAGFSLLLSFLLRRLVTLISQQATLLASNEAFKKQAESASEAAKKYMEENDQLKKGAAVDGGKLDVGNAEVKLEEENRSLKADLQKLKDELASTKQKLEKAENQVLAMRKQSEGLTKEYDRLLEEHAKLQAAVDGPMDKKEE
UniProt P12694: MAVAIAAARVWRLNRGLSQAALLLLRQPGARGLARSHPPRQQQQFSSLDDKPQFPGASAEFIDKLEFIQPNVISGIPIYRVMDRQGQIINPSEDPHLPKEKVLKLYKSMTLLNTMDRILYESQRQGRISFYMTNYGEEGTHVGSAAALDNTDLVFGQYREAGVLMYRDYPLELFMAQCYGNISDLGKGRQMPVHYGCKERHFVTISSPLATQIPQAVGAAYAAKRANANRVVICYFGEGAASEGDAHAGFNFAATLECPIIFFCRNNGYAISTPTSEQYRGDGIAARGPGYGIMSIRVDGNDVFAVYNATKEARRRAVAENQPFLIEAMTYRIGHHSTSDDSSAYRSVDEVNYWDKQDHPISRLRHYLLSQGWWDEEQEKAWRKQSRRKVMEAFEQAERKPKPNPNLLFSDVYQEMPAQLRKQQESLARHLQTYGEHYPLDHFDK
UniProt O95817, whole entry, looked up: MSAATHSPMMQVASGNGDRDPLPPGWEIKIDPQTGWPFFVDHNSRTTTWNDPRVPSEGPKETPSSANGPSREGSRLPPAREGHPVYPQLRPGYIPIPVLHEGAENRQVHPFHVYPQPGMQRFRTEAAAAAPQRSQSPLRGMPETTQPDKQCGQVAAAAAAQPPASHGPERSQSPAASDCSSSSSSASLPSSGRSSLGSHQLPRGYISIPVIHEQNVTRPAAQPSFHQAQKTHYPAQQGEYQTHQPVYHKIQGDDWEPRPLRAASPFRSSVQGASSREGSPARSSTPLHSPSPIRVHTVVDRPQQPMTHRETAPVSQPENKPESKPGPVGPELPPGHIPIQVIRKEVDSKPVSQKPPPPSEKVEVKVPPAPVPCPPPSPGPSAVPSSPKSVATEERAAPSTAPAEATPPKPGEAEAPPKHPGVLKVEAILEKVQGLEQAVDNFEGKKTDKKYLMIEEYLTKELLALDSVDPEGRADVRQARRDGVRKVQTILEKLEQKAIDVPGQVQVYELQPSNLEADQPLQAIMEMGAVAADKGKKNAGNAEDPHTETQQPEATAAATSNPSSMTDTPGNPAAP
UniProt P46379: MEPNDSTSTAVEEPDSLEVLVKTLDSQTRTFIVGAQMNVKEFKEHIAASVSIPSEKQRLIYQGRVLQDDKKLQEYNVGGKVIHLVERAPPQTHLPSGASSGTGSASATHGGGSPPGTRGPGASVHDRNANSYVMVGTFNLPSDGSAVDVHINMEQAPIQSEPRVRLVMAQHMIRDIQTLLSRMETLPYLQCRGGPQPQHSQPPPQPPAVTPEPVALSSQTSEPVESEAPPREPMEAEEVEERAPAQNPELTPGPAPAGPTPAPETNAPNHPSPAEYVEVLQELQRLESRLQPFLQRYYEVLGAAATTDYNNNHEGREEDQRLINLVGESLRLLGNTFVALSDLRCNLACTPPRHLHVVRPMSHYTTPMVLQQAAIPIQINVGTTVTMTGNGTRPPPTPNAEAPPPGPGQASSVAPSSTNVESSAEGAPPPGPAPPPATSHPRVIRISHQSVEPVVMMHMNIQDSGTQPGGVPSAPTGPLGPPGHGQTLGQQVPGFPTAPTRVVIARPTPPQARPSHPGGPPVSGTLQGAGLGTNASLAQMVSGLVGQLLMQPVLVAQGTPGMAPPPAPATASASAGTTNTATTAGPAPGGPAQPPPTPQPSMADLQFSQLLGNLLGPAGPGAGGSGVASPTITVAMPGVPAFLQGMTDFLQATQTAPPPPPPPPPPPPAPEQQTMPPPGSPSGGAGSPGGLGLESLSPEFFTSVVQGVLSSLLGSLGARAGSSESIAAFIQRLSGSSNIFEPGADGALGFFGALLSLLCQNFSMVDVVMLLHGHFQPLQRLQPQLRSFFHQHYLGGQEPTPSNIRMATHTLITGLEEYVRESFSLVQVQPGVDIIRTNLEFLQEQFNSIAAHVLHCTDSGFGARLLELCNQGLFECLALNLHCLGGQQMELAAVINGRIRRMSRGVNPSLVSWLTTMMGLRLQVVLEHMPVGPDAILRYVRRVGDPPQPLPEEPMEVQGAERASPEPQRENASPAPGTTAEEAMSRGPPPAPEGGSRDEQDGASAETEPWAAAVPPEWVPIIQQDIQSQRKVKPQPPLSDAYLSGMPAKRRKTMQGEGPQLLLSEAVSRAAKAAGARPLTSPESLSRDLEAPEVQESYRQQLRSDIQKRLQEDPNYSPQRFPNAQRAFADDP
UniProt Q9NWV8, whole entry, looked up: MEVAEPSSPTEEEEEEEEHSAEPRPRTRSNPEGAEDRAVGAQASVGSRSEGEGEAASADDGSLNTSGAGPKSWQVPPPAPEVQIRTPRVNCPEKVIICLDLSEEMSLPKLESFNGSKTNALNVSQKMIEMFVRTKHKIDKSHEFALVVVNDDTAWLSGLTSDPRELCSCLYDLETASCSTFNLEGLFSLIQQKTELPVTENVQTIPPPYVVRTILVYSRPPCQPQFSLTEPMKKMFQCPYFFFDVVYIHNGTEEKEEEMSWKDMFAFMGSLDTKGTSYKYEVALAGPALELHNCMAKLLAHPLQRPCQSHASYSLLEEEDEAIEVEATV
UniProt P25311: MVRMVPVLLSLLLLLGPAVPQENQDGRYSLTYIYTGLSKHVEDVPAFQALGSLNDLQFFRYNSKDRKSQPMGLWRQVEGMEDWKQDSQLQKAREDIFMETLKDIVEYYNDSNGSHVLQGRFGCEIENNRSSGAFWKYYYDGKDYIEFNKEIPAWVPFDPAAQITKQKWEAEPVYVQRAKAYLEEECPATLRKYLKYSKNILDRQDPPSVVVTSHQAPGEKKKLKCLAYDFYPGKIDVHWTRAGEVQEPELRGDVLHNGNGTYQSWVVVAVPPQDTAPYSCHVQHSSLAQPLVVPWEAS
UniProt Q92843: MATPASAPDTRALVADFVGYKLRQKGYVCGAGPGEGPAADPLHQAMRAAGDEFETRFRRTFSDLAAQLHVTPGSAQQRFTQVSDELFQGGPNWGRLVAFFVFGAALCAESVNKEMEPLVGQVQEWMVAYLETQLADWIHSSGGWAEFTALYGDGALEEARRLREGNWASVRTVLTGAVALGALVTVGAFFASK
UniProt P54687: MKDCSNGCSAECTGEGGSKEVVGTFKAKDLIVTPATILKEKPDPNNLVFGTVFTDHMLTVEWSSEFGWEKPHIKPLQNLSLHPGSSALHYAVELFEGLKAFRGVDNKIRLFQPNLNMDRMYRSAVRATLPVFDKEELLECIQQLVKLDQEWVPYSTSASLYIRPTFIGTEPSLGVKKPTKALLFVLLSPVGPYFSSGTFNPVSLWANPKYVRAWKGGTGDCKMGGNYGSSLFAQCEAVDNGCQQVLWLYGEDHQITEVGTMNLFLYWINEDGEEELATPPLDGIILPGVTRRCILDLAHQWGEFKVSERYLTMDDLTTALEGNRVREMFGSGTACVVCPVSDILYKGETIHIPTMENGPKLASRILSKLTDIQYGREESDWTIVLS
UniProt O15155: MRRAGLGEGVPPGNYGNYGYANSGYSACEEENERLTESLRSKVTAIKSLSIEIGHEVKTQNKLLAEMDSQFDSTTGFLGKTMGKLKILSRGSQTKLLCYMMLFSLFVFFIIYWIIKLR

How the values were obtained:
Test in all cases: log2 fold change, soluble protein after heating vs DMSO (PISA); higher = thermal stabilisation; K562 cells, 10 uM, 30 min; active = over 0.2 and 3.5 SD of the protein, either way, in both replicates (recomputed)
saracatinib = compound: CN1CCN(CCOc2cc(OC3CCOCC3)c3c(Nc4c(Cl)ccc5c4OCO5)ncnc3c2)CC1 [saracatinib]
In short: (§1)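 K562 cells (2×10^6 cells/mL) were treated with 10 μM compound for 30 min, and aliquots were heated for 3 min over 48°C-58°C. Pooled aliquots were extracted in PBS with 0.5% NP-40 at 4°C, and the supernatant after 21,000xg for 90 min was measured by TMTpro 16plex LC-MS/MS with channel sums equalised. Reported thermal stability, relative to control samples and from duplicates, is a log2 fold change.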

sotrastaurin = compound: CN1CCN(c2nc(C3=C(c4c[nH]c5ccccc45)C(=O)NC3=O)c3ccccc3n2)CC1 [sotrastaurin]
In short: as §1

alvocidib = compound: CN1CC[C@H](c2c(O)cc(O)c3c(=O)cc(-c4ccccc4Cl)oc23)[C@H](O)C1 [alvocidib]
In short: as §1

Tubastatin A = compound: CN1CCc2c(c3ccccc3n2Cc2ccc(C(=O)NO)cc2)C1 [Tubastatin A]
In short: as §1

[1] = compound: CNC(=O)C1=CC=CC=C1NC2=NC(=NC=C2Cl)NC3=C(C=C(C=C3)N4CCOCC4)OC
In short: as §1

defactinib = compound: CNC(=O)c1ccc(Nc2ncc(C(F)(F)F)c(NCc3nccnc3N(C)S(C)(=O)=O)n2)cc1 [defactinib]
In short: as §1

rucaparib = compound: CNCc1ccc(-c2[nH]c3cc(F)cc4c3c2CCNC4=O)cc1 [rucaparib]
In short: as §1

[2] = compound: CNc1nc(-c2ccc3c(N)n[nH]c3c2)cc(N2C[C@@H](C(=O)NC3CCCCC3)CC[C@H]2C)n1
In short: as §1

encorafenib = compound: COC(=O)N[C@@H](C)CNc1nccc(-c2cn(C(C)C)nc2-c2cc(Cl)cc(NS(C)(=O)=O)c2F)n1 [encorafenib]
In short: as §1

[3] = compound: COC(=O)[C@H](CCSC)NC(=O)C1=C(C=C(C=C1)NC[C@H](CS)N)C2=CC=CC=C2
In short: as §1

[4] = compound: COC1=CC=C(C=C1)CN2C=CC3=C2C=C(C=C3)C(=O)NO
In short: as §1

filanesib = compound: CON(C)C(=O)N1N=C(c2cc(F)ccc2F)S[C@@]1(CCCN)c1ccccc1 [filanesib]
In short: as §1

zotarolimus = compound: CO[C@H]1C[C@@H]2CC[C@@H](C)[C@@](O)(O2)C(=O)C(=O)N2CCCC[C@H]2C(=O)O[C@H]([C@H](C)C[C@@H]2CC[C@H](n3cnnn3)[C@H](OC)C2)CC(=O)[C@H](C)/C=C(\C)[C@@H](O)[C@@H](OC)C(=O)[C@H](C)C[C@H](C)/C=C/C=C/C=C/1C [zotarolimus]
In short: as §1

idasanutlin = compound: COc1cc(C(=O)O)ccc1NC(=O)[C@@H]1N[C@@H](CC(C)(C)C)[C@](C#N)(c2ccc(Cl)cc2F)[C@H]1c1cccc(Cl)c1F [idasanutlin]
In short: as §1

alisertib = compound: COc1cc(Nc2ncc3c(n2)-c2ccc(Cl)cc2C(c2c(F)cccc2OC)=NC3)ccc1C(=O)O [alisertib]
In short: as §1

[5] = compound: COc1cc2nc(-c3cc(F)ccc3O)nc(N[C@@H]3CNC[C@H]3C(C)(C)O)c2cc1OC
In short: as §1

gefitinib = compound: COc1cc2ncnc(Nc3ccc(F)c(Cl)c3)c2cc1OCCCN1CCOCC1 [gefitinib]
In short: as §1

[6] = compound: COc1cccc2cc(-c3nc([C@H]4CC[C@H](C(=O)O)CC4)n4ncnc(N)c34)[nH]c12
In short: as §1

lapatinib = compound: CS(=O)(=O)CCNCc1ccc(-c2ccc3ncnc(Nc4ccc(OCc5cccc(F)c5)c(Cl)c4)c3c2)o1 [lapatinib]
In short: as §1

pictilisib = compound: CS(=O)(=O)N1CCN(Cc2cc3nc(-c4cccc5[nH]ncc45)nc(N4CCOCC4)c3s2)CC1 [pictilisib]
In short: as §1

Measured: log2 fold change

BLOC1S2 (UniProt Q6QNY1)
inactive: saracatinib -0.021 | sotrastaurin 0.114 | alvocidib 0 | Tubastatin A -0.033 | [1] -0.001 | defactinib 0.035 | rucaparib -0.114 | [2] -0.088 | encorafenib 0.038 | [3] 0.074 | [4] 0.182 | filanesib 0.041 | zotarolimus 0.013 | idasanutlin 0.159 | alisertib 0.009 | [5] -0.176 | gefitinib 0.02 | [6] 0.035 | lapatinib 0.112 | pictilisib 0.037

BICD1 (UniProt Q96G01)
inactive: saracatinib -0.11 | sotrastaurin -0.045 | alvocidib -0.099 | Tubastatin A 0.05 | [1] 0.076 | defactinib -0.036 | rucaparib -0.038 | [2] -0.025 | encorafenib 0.006 | [3] 0.017 | [4] -0.02 | filanesib 0.038 | zotarolimus 0.071 | idasanutlin 0.035 | alisertib 0.04 | [5] 0.019 | gefitinib -0.004 | [6] -0.105 | lapatinib 0.022 | pictilisib 0.12

BCKDHB (UniProt P21953)
inactive: saracatinib 0.073 | sotrastaurin 0.348 | alvocidib 0.049 | Tubastatin A -0.19 | [1] -0.024 | defactinib 0 | rucaparib 0.02 | [2] 0.031 | encorafenib -0.016 | [3] -0.05 | [4] -0.011 | filanesib -0.091 | zotarolimus -0.057 | idasanutlin -0.035 | alisertib 0.022 | [5] -0.042 | gefitinib 0.059 | [6] 0.007 | lapatinib -0.029 | pictilisib 0.178

BCAT2 (UniProt O15382)
inactive: saracatinib 0.007 | sotrastaurin 0.027 | alvocidib 0.003 | Tubastatin A -0.012 | [1] 0.012 | defactinib -0.016 | rucaparib -0.012 | [2] -0.068 | encorafenib -0.014 | [3] 0.017 | [4] 0.028 | filanesib -0.003 | zotarolimus -0.04 | idasanutlin -0.019 | alisertib -0.048 | [5] 0.028 | gefitinib 0.009 | [6] 0.05 | lapatinib -0.031 | pictilisib 0.014

BCL2L1 (UniProt Q07817)
inactive: saracatinib 0.077 | sotrastaurin -0.065 | alvocidib -0.11 | Tubastatin A 0.047 | [1] -0.016 | defactinib -0.039 | rucaparib -0.135 | [2] 0.057 | encorafenib 0.144 | [3] -0.011 | [4] -0.046 | filanesib -0.06 | zotarolimus 0.024 | idasanutlin 0.015 | alisertib -0.077 | [5] -0.127 | gefitinib -0.012 | [6] 0.039 | lapatinib 0.058 | pictilisib -0.032

BLVRA (UniProt P53004)
inactive: saracatinib -0.02 | sotrastaurin 0.071 | alvocidib -0.064 | Tubastatin A -0.039 | [1] -0.039 | defactinib -0.004 | rucaparib -0.035 | [2] -0.003 | encorafenib 0.003 | [3] 0.006 | [4] -0.002 | filanesib -0.097 | zotarolimus 0.017 | idasanutlin -0.127 | alisertib -0.021 | [5] 0.025 | gefitinib -0.009 | [6] 0.085 | lapatinib -0.013 | pictilisib 0.027

BCAP31 isoform 2 (UniProt P51572)
inactive: saracatinib 0.03 | sotrastaurin 0.039 | alvocidib -0.001 | Tubastatin A -0.016 | [1] -0.004 | defactinib 0.002 | rucaparib -0.078 | [2] -0.02 | encorafenib -0.021 | [3] 0.01 | [4] -0.056 | filanesib -0.046 | zotarolimus -0.005 | idasanutlin -0.012 | alisertib -0.032 | [5] 0.021 | gefitinib 0.03 | [6] 0.015 | lapatinib -0.073 | pictilisib -0.049

2 records drawn at random from those above, as already listed:
BICD1 (UniProt Q96G01)
inactive: saracatinib -0.11 | sotrastaurin -0.045 | alvocidib -0.099 | Tubastatin A 0.05 | [1] 0.076 | defactinib -0.036 | rucaparib -0.038 | [2] -0.025 | encorafenib 0.006 | [3] 0.017 | [4] -0.02 | filanesib 0.038 | zotarolimus 0.071 | idasanutlin 0.035 | alisertib 0.04 | [5] 0.019 | gefitinib -0.004 | [6] -0.105 | lapatinib 0.022 | pictilisib 0.12

BCL2L1 (UniProt Q07817)
inactive: saracatinib 0.077 | sotrastaurin -0.065 | alvocidib -0.11 | Tubastatin A 0.047 | [1] -0.016 | defactinib -0.039 | rucaparib -0.135 | [2] 0.057 | encorafenib 0.144 | [3] -0.011 | [4] -0.046 | filanesib -0.06 | zotarolimus 0.024 | idasanutlin 0.015 | alisertib -0.077 | [5] -0.127 | gefitinib -0.012 | [6] 0.039 | lapatinib 0.058 | pictilisib -0.032

(next part)

BCKDHA (UniProt P12694)
inactive: saracatinib 0.024 | sotrastaurin 0.003 | alvocidib -0.026 | Tubastatin A 0.021 | [1] -0.007 | defactinib -0.11 | rucaparib -0.009 | [2] 0.032 | encorafenib -0.086 | [3] -0.028 | [4] -0.19 | filanesib 0.003 | zotarolimus -0.074 | idasanutlin -0.105 | alisertib -0.033 | [5] 0.005 | gefitinib 0.112 | [6] 0.012 | lapatinib 0.054 | pictilisib 0.067

BAG3 (UniProt O95817)
inactive: saracatinib 0.063 | sotrastaurin 0.063 | alvocidib 0.015 | Tubastatin A -0.003 | [1] -0.019 | defactinib -0.019 | rucaparib 0.003 | [2] -0.052 | encorafenib -0.091 | [3] 0.031 | [4] -0.015 | filanesib 0.036 | zotarolimus -0.053 | idasanutlin 0.048 | alisertib -0.023 | [5] -0.012 | gefitinib -0.033 | [6] 0.032 | lapatinib -0.042 | pictilisib 0.146

BAG6 isoform 3 (UniProt P46379)
inactive: saracatinib -0.01 | sotrastaurin -0.085 | alvocidib -0.054 | Tubastatin A -0.012 | [1] 0.026 | defactinib -0.064 | rucaparib 0.002 | [2] -0.036 | encorafenib 0.028 | [3] -0.039 | [4] 0.026 | filanesib -0.024 | zotarolimus 0.045 | idasanutlin 0.077 | alisertib -0.115 | [5] -0.013 | gefitinib -0.011 | [6] -0.024 | lapatinib 0.011 | pictilisib -0.004

BABAM1 (UniProt Q9NWV8)
inactive: saracatinib 0.046 | sotrastaurin 0 | alvocidib 0.015 | Tubastatin A -0.074 | [1] 0.013 | defactinib 0.001 | rucaparib 0.015 | [2] -0.005 | encorafenib 0.019 | [3] 0.03 | [4] 0.154 | filanesib 0.052 | zotarolimus -0.001 | idasanutlin 0.021 | alisertib -0.053 | [5] -0.045 | gefitinib 0.031 | [6] 0.028 | lapatinib 0.009 | pictilisib -0.094

AZGP1 (UniProt P25311)
inactive: saracatinib -0.305 | sotrastaurin -0.054 | alvocidib -0.473 | Tubastatin A 0.073 | [1] -0.209 | defactinib -0.079 | rucaparib -0.068 | [2] 0.29 | encorafenib -0.101 | [3] 0.068 | [4] 0.596 | filanesib 0.421 | zotarolimus -0.304 | idasanutlin 0.046 | alisertib 0.589 | [5] 0.14 | gefitinib 0.108 | [6] -0.117 | lapatinib -0.213 | pictilisib 0.437

BCL2L2 isoform 2 (UniProt Q92843)
inactive: saracatinib 0.034 | sotrastaurin 0.023 | alvocidib 0.14 | Tubastatin A 0.04 | [1] 0.037 | defactinib 0.238 | rucaparib 0.1 | [2] -0.071 | encorafenib -0.034 | [3] -0.033 | [4] 0.018 | filanesib 0.115 | zotarolimus -0.024 | idasanutlin 0.164 | alisertib -0.1 | [5] 0.073 | gefitinib -0.145 | [6] -0.022 | lapatinib 0.002 | pictilisib 0.029

BCAT1 (UniProt P54687)
inactive: saracatinib -0.012 | sotrastaurin 0.046 | alvocidib -0.014 | Tubastatin A 0.007 | [1] -0.037 | defactinib -0.037 | rucaparib -0.052 | [2] -0.043 | encorafenib 0.011 | [3] 0.026 | [4] 0.023 | filanesib -0.008 | zotarolimus 0.003 | idasanutlin 0.005 | alisertib -0.029 | [5] 0.018 | gefitinib -0.017 | [6] 0.044 | lapatinib -0.02 | pictilisib 0.001

BORCS5 (UniProt Q969J3)
inactive: saracatinib 0.027 | sotrastaurin 0.005 | alvocidib -0.067 | Tubastatin A -0.051 | [1] -0.04 | defactinib 0.074 | rucaparib 0.079 | [2] -0.065 | encorafenib -0.021 | [3] 0.115 | [4] -0.012 | filanesib -0.073 | zotarolimus 0 | idasanutlin 0.004 | alisertib 0.276 | [5] 0.007 | gefitinib 0.001 | [6] 0.017 | lapatinib 0.009 | pictilisib -0.09

BET1 (UniProt O15155)
inactive: saracatinib -0.004 | sotrastaurin 0.07 | alvocidib 0.027 | Tubastatin A -0.031 | [1] -0.011 | defactinib -0.027 | rucaparib -0.007 | [2] -0.049 | encorafenib 0.013 | [3] -0.055 | [4] -0.06 | filanesib -0.08 | zotarolimus 0.036 | idasanutlin -0.017 | alisertib -0.055 | [5] -0.062 | gefitinib -0.024 | [6] 0.025 | lapatinib -0.029 | pictilisib 0.024
